Test results taken from patent EP4609859A1, “INHIBITORS OF THE GENE SMPD1 FOR THE TREATMENT OF SPINAL MUSCULAR ATROPHY” (Universidad Pablo de Olavide, priority 2024, dated 2025).
At least one compound was matched to its structure with a doubt left.

Tested on: SMN-1
Assay: SMN-1 level by head fluorescence in C. elegans strain mCherry::smn-1 (PHX2635) after drug treatment
Format: in vivo
Conditions: 100 µM; Fig. 11; vs non-treated animals
Description: C. elegans strains were cultivated under standard conditions (Stiernagle, 2006). The strains used are as follows: PHX2635: smn-1(syb2635); BN1158: bqSi1152[pBN521(unc-119(+) eft-3p::Frt::mCh::his-58::Frt::UPRT)]II; bqSi577[pBN306(unc-119(+) myo-2p::GFP)] IV. unc-119(ed9)III . The Escherichia coli strains used were: OP50 and HT115.
The strain PHX2635: smn-1(syb2635) was generated by CRISPR technology, we introduced the coding sequence of the fluorescent protein m-Cherry upstream of the TAA stop codon of the C. elegans SMN1 homologous gene, smn-1, as indicated in the sequence: [formula]
RNAi feeding was performed as described (Kamath and Ahringer, 2003). RNAi clones belong to the Aringher gene library were used: JA:C41G7.1 (smn-1), JA:T18D3.7 (tsct-1), JA:WO3G1.7 (asm-3), JA:C07A12.7 (C07A12.7), JA:C10E2.3 (hda-4), JA:K09A9.4 (usp-33), JA:R01B10.1 (cpi-2), JA:K08B4.6 (cpi-1), JA:K06A4.3 (gsnl-1), JA:F23H11.4 (F23H11.4), JA:T18H9.7 (pacs-1), JA:C41G7.1 (smn-1) and MV_SV: mv_ZK455.4 (asm-2) from Marc Vidal's gene library (Kim et al., 2005). […]
For image analysis, we used FIJI software. […] Within this area, mCherry expression was detected using an intensity threshold that remained constant along all images. […] Within the thresholded volume, we measured the integrated density using the plugin 3D object counter (Bolte and Cordelières, 2006). […]

CCOC(=O)C1=C(COCCN)NC(C)=C(C(=O)OC)C1c1ccccc1Cl (stereo not shown) [amlodipine]
level of SMN-1, repeated experiments on different days: statistically significant increase
